Results published in paper PMC4263398.
These are yes or no findings as the source states them, for the method shown. In cells and extracts the contact can be indirect. A yes stands for co-enrichment or nearness to the bait. Other partners may have been found. For some of these results: No binding means not detected with the bait. Sequences can lack the tags named with a protein.

Amino acid sequences for entries named in this document (tags omitted).
UniProt O35730: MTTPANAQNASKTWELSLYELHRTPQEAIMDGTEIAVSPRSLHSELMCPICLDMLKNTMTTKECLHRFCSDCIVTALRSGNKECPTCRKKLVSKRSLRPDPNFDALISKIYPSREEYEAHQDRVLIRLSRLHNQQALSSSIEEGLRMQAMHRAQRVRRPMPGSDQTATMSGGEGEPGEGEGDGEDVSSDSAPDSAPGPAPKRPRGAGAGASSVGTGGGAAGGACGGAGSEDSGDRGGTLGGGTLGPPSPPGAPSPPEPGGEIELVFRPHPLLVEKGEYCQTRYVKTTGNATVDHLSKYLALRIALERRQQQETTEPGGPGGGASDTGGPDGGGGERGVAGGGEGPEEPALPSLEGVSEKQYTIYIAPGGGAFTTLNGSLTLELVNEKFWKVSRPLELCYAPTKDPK
UniProt Q8CHK4: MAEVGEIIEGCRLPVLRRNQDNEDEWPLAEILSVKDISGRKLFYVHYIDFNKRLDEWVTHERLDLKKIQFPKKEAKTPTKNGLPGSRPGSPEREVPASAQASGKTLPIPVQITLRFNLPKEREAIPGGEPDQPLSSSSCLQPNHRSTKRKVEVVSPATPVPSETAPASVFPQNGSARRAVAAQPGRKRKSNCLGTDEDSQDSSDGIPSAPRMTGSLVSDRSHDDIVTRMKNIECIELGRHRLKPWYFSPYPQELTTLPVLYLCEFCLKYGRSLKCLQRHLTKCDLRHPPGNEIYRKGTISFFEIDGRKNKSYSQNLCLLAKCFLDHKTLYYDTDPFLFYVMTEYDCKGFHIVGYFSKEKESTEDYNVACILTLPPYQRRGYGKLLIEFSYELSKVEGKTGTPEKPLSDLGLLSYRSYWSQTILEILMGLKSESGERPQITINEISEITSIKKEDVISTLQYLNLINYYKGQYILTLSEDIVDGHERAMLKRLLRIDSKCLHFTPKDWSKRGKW

T1: FLAG epitope-tagged Cbx8 (mouse) (UniProt Q9QXV1)
T1 sequence: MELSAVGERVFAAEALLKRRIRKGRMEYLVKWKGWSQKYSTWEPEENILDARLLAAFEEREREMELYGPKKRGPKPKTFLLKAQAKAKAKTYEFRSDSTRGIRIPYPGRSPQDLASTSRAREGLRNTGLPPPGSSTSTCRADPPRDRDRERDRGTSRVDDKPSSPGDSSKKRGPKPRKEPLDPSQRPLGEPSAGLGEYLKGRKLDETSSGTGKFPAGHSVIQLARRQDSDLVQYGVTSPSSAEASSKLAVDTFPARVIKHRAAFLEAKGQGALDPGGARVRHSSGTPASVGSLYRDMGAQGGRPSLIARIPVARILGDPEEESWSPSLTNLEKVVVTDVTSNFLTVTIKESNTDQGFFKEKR

T2: FLAG epitope-tagged Cbx8 (mouse), Q9QXV1
T2 chain: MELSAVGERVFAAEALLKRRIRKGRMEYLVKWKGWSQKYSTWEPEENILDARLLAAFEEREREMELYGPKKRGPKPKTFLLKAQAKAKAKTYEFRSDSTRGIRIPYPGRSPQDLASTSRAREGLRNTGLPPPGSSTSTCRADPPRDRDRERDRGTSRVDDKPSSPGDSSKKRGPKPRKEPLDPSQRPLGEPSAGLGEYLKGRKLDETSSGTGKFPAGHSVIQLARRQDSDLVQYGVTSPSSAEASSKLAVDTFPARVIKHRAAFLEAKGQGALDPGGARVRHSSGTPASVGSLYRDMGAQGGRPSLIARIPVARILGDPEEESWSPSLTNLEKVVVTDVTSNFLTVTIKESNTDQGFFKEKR


What was measured:
[1] = molecular target: T1, FLAG epitope-tagged Cbx8 (mouse); assay: affinity purification with mass spectrometry; anti-Flag M2 beads, 2 h; soluble nuclear extract (high salt extraction, diluted to isotonic concentration) of ES cells expressing Flag-tagged Cbx8, treated with RA for 3 days; parental (mock) cells as control; LC-MS/MS; only proteins enriched more than 10 fold with at least 5% coverage were considered
[2] = molecular target: T2, FLAG epitope-tagged Cbx8 (mouse), Q9QXV1; assay: as above; conditions: remark: other sources report otherwise

binding [1]	binding [2]	Molecule
binds	–	Ring1a (from UniProt O35730 1-406)
–	binds	Phc2, Q9QWH1 1-850 (protein) MENELPVPHTSNRASVTTNTSGTNSSSGCISSSGGGGGSGGRPTAPQISVYSGIPDRQTVQVIQQALHRQPSTAAQYLQQMYAAQQQHLMLQTAALQQQHLSSAQLQSLAAVQQASLVANRQGSTPGSSVSSQAPAQSSSLNLAASPAAAQLINRAQSVNSAAASGLAQQAVLLGNTSSPALTASQAQMYLRAQMLIFTPTATVATVQPELCTGSPARPPTPAQVQNLTLRTQQTPAAAASGPPPTQPVLPSLALKPTPSSSQPLPAPPQGRTMAQGSPAGAKPSGTDNAPETLKAGDGNCNMEGRPGPGRAVPAVATHPLIAPAYAHLQSHQLLPQPPAKHPQPQFVAQQQPQPPRPAPQVQSQPQLASVSPSLALQSSPEDHALPLGSVTQALPLQCSTTHVHKPGNSQQCHLPTLDTGSQNGHPEGGSHPPQRRFQHTSAVILQVQPASPVTPQQCAPDDWKEVVPAEKSVPVARPGPSPHQQAIIPAIPGGLPGPKSPNIQQCPAHETGQGIVHALTDLSSPGMTSGNGNSASSIAGTAPQNGENKPPQAIVKPQILTHVIEGFVIQEGAEPFPVGRSSLLVGNLKKKYAQGFLPEKPPQQDHTTTTDSEMEEPYLQESKEEGTPLKLKCELCGRVDFAYKFKRSKRFCSMACAKRYNVGCTKRVGLFHSDRSKLQKAGTTTHNRRRASKASLPTLTKDTKKQPSGTVPLSVTAALQLAHSQEDSSRCSDNSSYEEPLSPISASSSTSRRRQGQRDLDLPDMHMRDLVGVGHHFLPSEPTKWNVEDVYEFIRSLPGCQEIAEEFRAQEIDGQALLLLKEDHLMSAMNIKLGPALKIYARISMLKDS

The next lines start with the molecule.

Molecule	binding [1]	binding [2]
Tip60 (from UniProt Q8CHK4 1-513)	no binding	–
Mel18 (protein, UniProt P23798 1-342) MHRTTRIKITELNPHLMCALCGGYFIDATTIVECLHSFCKTCIVRYLETNKYCPMCDVQVHKTRPLLSIRSDKTLQDIVYKLVPGLFKDEMKRRRDFYAAYPLTEVPNGSNEDRGEVLEQEKGALGDDEIVSLSIEFYEGVRDREEKKNLTENGDGDKEKTGVRFLRCPAAMTVMHLAKFLRNKMDVPSKYKVEILYEDEPLKEYYTLMDIAYIYPWRRNGPLPLKYRVQPACKRLTLPTVPTPSEGTNTSGASECESVSDKAPSPATLPATSSSLPSPATPSHGSPSSHGPPATHPTSPTPPSTAAGTTTATNGGTSNCLQTPSSTSRGRKMTVNGAPCPP	binds	–
